In PubChem BioAssay (Tox21):
Values joined by “and” are separate entries in the source; they are usually repeats but may differ in a detail not shown here. Identical values can stand only once. This list was built around the results that the source calls inconclusive (neither active nor inactive); the mix of calls is not that of the screen. Potencies of inconclusive entries are doubtful fits and often do not repeat. Some compounds were tested as several samples or in several runs, with calls that do not always agree. Active and inactive are the calls of the source. The call rests on the fitted dose curve; in most records, active means well fitted inhibition curve with a large enough effect in the repeat runs; inconclusive means weak or mixed curves; inactive means no such curve, though single readings can be large or run the other way.

By UniProt entry, the sequences of proteins in these tests, tags left out.
UniProt P10635, whole entry, looked up: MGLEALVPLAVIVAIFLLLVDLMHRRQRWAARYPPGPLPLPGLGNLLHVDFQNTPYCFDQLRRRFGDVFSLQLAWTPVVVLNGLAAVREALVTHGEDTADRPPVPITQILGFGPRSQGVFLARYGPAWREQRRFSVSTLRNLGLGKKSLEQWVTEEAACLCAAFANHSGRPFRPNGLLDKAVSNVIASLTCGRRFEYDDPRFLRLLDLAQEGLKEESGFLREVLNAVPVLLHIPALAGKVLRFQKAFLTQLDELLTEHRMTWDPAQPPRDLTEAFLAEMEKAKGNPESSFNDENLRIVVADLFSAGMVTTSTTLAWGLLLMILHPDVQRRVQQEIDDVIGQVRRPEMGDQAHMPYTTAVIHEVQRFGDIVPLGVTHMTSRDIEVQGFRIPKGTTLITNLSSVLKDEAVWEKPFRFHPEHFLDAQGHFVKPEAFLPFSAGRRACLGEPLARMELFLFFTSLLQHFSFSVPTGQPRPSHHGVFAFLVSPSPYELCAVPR
UniProt P33261, whole entry, looked up: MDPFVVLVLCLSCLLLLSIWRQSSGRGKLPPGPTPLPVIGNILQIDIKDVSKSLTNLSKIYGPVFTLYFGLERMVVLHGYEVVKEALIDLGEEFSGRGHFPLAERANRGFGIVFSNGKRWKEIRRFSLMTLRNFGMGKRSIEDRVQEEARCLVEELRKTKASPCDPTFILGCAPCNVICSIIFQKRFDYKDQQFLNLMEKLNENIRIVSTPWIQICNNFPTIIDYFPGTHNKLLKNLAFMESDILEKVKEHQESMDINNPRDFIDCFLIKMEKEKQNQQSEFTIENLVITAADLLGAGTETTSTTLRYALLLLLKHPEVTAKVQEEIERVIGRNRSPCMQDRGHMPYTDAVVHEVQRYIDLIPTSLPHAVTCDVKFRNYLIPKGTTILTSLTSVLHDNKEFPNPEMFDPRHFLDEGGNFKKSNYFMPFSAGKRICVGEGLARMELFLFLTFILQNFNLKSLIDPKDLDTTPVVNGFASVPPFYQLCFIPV

biological target: Cytochrome P450 2D6 (Homo sapiens) (UniProt P10635); assay: Cytochrome P450 Family 2 Subfamily D Member 6 (CYP2D6) small molecule antagonists: luciferase reporter qHTS assay (AID 1671196); details: P450-Glo CYP2D6 enzyme assay, luciferin luminescence, 1 h; series mostly up to 115 µM; activity change, negative = inhibition: at the top concentration; further: nearly all actives have a fitted effect of over 50% in size
In short: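 Quantitative HTS of Tox21 chemicals against CYP2D6 using a luminescent proluciferin substrate. After NADPH addition, 1 h room-temperature reaction; luminescence recorded 20 min post detection reagent.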
On the % scale 0 is the no-effect control and ±100 the full control effect; potency means the concentration at half of the fitted maximal effect.

Question: For `O=C1C(Cl)C(CCl)CN1c1cccc(C(F)(F)F)c1` (stereo not given), which Potency is on record?
Answer: Its Potency is inconclusive: 35.6 µM [inhibitor, full curve].

Question: `Clc1ccccc1-c1nnc(-c2ccccc2Cl)nn1` was tested. Which Potency did it give?
Answer: The Potency was “inactive”.

Question: For `CC(C)N1C(=O)c2ccccc2NS1(=O)=O`, which Potency is on record?
Answer: Its Potency is inconclusive: 31.7 µM [inhibitor, full curve, poor fit].

Question: For `O=Cc1cccc(Oc2ccccc2)c1`, which Potency is on record?
Answer: Its Potency is inconclusive: 40.2 µM [inhibitor] and inactive.

Question: With `CC1(C)[C@H](C=C(Cl)Cl)[C@@H]1C(=O)O[C@@H](C#N)c1cccc(Oc2ccccc2)c1` as the compound, how does the Potency read?
Answer: Its Potency is inconclusive: 22.4 µM [inhibitor, partial curve, poor fit].

Question: How did the Potency turn out when `OC(O)C(Cl)(Cl)Cl` was run?
Answer: Its Potency is “inactive”.

Question: With `CNC` as the compound, how does the Potency read?
Answer: The Potency was inconclusive: 78.4 µM [inhibitor, partial curve].

Question: How did the Potency turn out when `c1ccc(N=Nc2ccccc2)cc1` was run?
Answer: The Potency was active: 14.4 µM.

Question: Which Potency does the source give for `CN(C)CCC#N` here?
Answer: The Potency was “inactive”.

Question: How did the Potency turn out when `CC(Br)C(=O)O` (stereo not given) was run?
Answer: The Potency was inconclusive: 71 µM [inhibitor, partial curve, poor fit].

Question: For `FC(F)(F)c1cccc(C2=CCN(CCc3ccc4ccccc4c3)CC2)c1`, which Potency is on record?
Answer: The Potency was active: 0.195 µM.

Question: For `CCCCP(CCCC)CCCC`, which Potency is on record?
Answer: Its Potency is active: 35.6 µM.

Question: How did the “activity change, negative = inhibition” value turn out when `COC(=O)C(Cl)C(=O)OC` was run?
Answer: The value was inactive: -5% [at 53 µM].

Question: `CCCCOC(=O)c1ccccc1C(=O)OCCCC` was tested. Which Potency did it give?
Answer: Its Potency is inconclusive: 39.9 µM [inhibitor, partial curve].

Question: How did the Potency turn out when `NP(N)(=O)NC(=O)c1ccc(F)cc1` was run?
Answer: Its Potency is inconclusive: 38.9 µM [inhibitor, single point].

Question: Which Potency does the source give for `CN(N=O)c1ccccc1` here?
Answer: The Potency was “inactive”.

Question: How did the Potency turn out when `O=S(=O)(Cl)c1ccccc1` was run?
Answer: Its Potency is inconclusive: 80.1 µM [inhibitor, partial curve, poor fit].

Question: Which Potency does the source give for `CCCCCCC#N` here?
Answer: The Potency was active: 38.7 µM.

Question: How did the Potency turn out when `O=c1[nH]c(=O)[nH]c(=O)[nH]1` was run?
Answer: Its Potency is active: 63.2 µM and inactive.

Question: With `CCBr` as the compound, how does the Potency read?
Answer: The Potency was inconclusive: 40.5 µM [inhibitor, partial curve].

Question: For `BrCC(Br)c1ccccc1` (stereo not given), which Potency is on record?
Answer: The Potency was active: 12.6 µM.

Question: For `CC(CC(C#N)(c1ccccc1)c1ccccc1)N(C)C` (stereo not given), which Potency is on record?
Answer: The Potency was active: 11.2 µM.

Question: How did the Potency turn out when `CCCOC(=O)c1ccccc1C(=O)OCCC` was run?
Answer: The Potency was “inactive”.

Question: For `O=NN1CCCCCC1`, which “activity change, negative = inhibition” value is on record?
Answer: Its value is inactive: 3%.

Question: How did the Potency turn out when `c1ccc2c(c1)CCNC2` was run?
Answer: Its Potency is active: 7.28 µM.

Question: With `CCOP(=O)(CN(CCO)CCO)OCC` as the compound, how does the “activity change, negative = inhibition” value read?
Answer: The value was inactive: -1.11%.

Question: For `ClCCOCCCl`, which Potency is on record?
Answer: The Potency was inconclusive: 40.2 µM [inhibitor, partial curve].

Question: For `CCNc1nc(NC(C)C)nc(SC)n1`, which Potency is on record?
Answer: The Potency was “inactive”.

Question: How did the Potency turn out when `NNC(=O)c1cccnc1` was run?
Answer: The Potency was inconclusive: 63.5 µM [inhibitor, partial curve].

Question: For `CC(Cc1ccc(OCC(=O)O)cc1)NCC(O)c1csc(C(F)(F)F)n1` (stereo not given), which Potency is on record?
Answer: The Potency was inconclusive: 39.9 µM [inhibitor, partial curve].

Question: With `CCCCCCCCCCCCN=C(N)N` as the compound, how does the Potency read?
Answer: Its Potency is inconclusive: 2.47 µM [inhibitor, partial curve].

Question: `Cc1cc(O)ccc1Cl` was tested. Which Potency did it give?
Answer: The Potency was “inactive”.

Question: Which Potency does the source give for `OC(c1ccc(F)cc1)(c1cncnc1)c1ccccc1Cl` (stereo not given) here?
Answer: The Potency was inconclusive: 31.7 µM [inhibitor, partial curve].

Question: How did the Potency turn out when `[CH3][Sn]([Cl])([Cl])[Cl]` was run?
Answer: The Potency was active: 32.4 µM.

Question: `CC1CN1` (stereo not given) was tested. Which Potency did it give?
Answer: The Potency was inconclusive: 44.8 µM [inhibitor, partial curve, poor fit].

biological target: Cytochrome P450 2C19 (Homo sapiens) (UniProt P33261); assay: Cytochrome P450 Family 2 Subfamily C Member 19 (CYP2C19) small molecule antagonists: luciferase reporter qHTS assay (AID 1671197); details: P450-Glo CYP2C19 enzyme, luciferin luminescence, 1 h; series mostly up to 115 µM; activity change, negative = inhibition: at the top concentration; further: nearly all actives have a fitted effect of over 65% in size
In short: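 Light output is proportional to CYP2C19 activity: proluciferin substrate is converted to luciferin, then detected by a luciferin detection reagent that also stops the 1 h, 37C NADPH-driven reaction. Ketoconazole serves as positive control.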

Question: For `CC(C)N1C(=O)c2ccccc2NS1(=O)=O`, which Potency is on record?
Answer: Its Potency is inconclusive: 89.4 µM [inhibitor, single point].

Question: How did the Potency turn out when `CN(C)CCC#N` was run?
Answer: The Potency was inconclusive: 81.8 µM [inhibitor, single point].

Question: How did the Potency turn out when `CC(Br)C(=O)O` (stereo not given) was run?
Answer: The Potency was inconclusive: 89.4 µM [inhibitor, single point].

Question: How did the “activity change, negative = inhibition” value turn out when `O=C(O)c1cccc(Cl)c1` was run?
Answer: Its value is inactive: -21%.

Question: For `COC(=O)C(Cl)C(=O)OC`, which Potency is on record?
Answer: Its Potency is inconclusive: 43.6 µM [inhibitor, single point].

Question: How did the Potency turn out when `NP(N)(=O)NC(=O)c1ccc(F)cc1` was run?
Answer: The Potency was inconclusive: 43.6 µM [inhibitor, single point].

Question: With `CN(N=O)c1ccccc1` as the compound, how does the Potency read?
Answer: Its Potency is inconclusive: 92.6 µM [inhibitor, single point].

Question: With `O=c1[nH]c(=O)[nH]c(=O)[nH]1` as the compound, how does the Potency read?
Answer: The Potency was inconclusive: 89.3 µM [inhibitor, single point].

Question: `BrCC(Br)c1ccccc1` (stereo not given) was tested. Which Potency did it give?
Answer: The Potency was inconclusive: 89.4 µM [inhibitor, single point].

Question: How did the Potency turn out when `CC(CC(C#N)(c1ccccc1)c1ccccc1)N(C)C` (stereo not given) was run?
Answer: The Potency was inconclusive: 88.9 µM [inhibitor, single point].

Question: Which “activity change, negative = inhibition” value does the source give for `Oc1c(Cl)cccc1Cl` here?
Answer: The value was inactive: 13.5%.

Question: `O=NN1CCCCCC1` was tested. Which “activity change, negative = inhibition” value did it give?
Answer: Its value is inactive: 24.9%.

Question: With `CCOP(=O)(CN(CCO)CCO)OCC` as the compound, how does the Potency read?
Answer: Its Potency is inconclusive: 89.4 µM [inhibitor, single point].

Question: Which Potency does the source give for `Nc1ccc(Cl)c(Cl)c1` here?
Answer: The Potency was “inactive”.

Question: How did the Potency turn out when `CCNc1nc(NC(C)C)nc(SC)n1` was run?
Answer: Its Potency is inconclusive: 71.4 µM [inhibitor, partial curve, poor fit] and inconclusive: 89.4 µM [inhibitor, single point].

Question: `Cc1ccccc1CCl` was tested. Which “activity change, negative = inhibition” value did it give?
Answer: The value was inactive: 37.9%.

Question: For `CCCCCCCCCCCCN=C(N)N`, which Potency is on record?
Answer: The Potency was inconclusive: 4.39 µM [inhibitor, single point].

Question: For `Cc1cc(O)ccc1Cl`, which Potency is on record?
Answer: Its Potency is “inactive”.

Question: For `[CH3][Sn]([Cl])([Cl])[Cl]`, which Potency is on record?
Answer: The Potency was inconclusive: 91.3 µM [inhibitor, single point].

Question: `CC1CN1` (stereo not given) was tested. Which Potency did it give?
Answer: Its Potency is inconclusive: 89.4 µM [inhibitor, single point].
